Results are given in words; binding and its absence hold for the method and conditions named. Binding seen in cells or lysates may run through a third protein. Tags and fused reporters may be left off the sequences shown.
Target: ubiquitin-specific protease 10 (USP10), HA-tagged (UniProt Q14694)
Experiment: co-IP; HT22 cells transfected with Tau4R1N plasmid along with HA-USP10 and/or FLAG-TIA1; lysed in NP-40 lysis buffer (1% NP-40, 125 mM Tris-HCl pH 7.2, 150 mM NaCl, 1 mM EDTA); immunoprecipitated with anti-HA; blots with anti-HA, anti-FLAG and anti-Tau (TAU-5)

Sequences of proteins named here, by UniProt entry; tags and fusion partners are left off. A change or cut given only in a name is not applied to a line headed by its entry. A line that says so, or that is headed by a name, gives the form on record, which may keep a tag or linker.
UniProt Q14694: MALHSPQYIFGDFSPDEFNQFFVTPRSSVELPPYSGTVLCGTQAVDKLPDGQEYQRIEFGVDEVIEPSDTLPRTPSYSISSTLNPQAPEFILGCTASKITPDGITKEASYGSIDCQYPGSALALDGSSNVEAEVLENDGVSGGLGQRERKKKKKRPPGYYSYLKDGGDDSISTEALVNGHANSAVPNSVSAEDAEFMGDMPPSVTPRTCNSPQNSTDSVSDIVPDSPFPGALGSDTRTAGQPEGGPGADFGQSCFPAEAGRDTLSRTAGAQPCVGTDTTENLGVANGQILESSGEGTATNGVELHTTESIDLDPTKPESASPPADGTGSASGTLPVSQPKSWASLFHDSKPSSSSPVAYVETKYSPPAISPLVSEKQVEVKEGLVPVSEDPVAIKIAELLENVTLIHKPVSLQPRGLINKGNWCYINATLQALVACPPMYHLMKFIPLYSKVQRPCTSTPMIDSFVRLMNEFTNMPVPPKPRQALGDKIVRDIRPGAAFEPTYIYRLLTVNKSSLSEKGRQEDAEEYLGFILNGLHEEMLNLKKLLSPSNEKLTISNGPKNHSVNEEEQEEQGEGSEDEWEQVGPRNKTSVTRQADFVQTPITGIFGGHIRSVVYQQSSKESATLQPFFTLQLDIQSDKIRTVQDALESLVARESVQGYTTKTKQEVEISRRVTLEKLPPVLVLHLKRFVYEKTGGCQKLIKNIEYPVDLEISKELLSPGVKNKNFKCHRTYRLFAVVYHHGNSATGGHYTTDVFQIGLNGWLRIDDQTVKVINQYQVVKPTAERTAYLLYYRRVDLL
Tau (Tau4R1N) (P10636-7, form named): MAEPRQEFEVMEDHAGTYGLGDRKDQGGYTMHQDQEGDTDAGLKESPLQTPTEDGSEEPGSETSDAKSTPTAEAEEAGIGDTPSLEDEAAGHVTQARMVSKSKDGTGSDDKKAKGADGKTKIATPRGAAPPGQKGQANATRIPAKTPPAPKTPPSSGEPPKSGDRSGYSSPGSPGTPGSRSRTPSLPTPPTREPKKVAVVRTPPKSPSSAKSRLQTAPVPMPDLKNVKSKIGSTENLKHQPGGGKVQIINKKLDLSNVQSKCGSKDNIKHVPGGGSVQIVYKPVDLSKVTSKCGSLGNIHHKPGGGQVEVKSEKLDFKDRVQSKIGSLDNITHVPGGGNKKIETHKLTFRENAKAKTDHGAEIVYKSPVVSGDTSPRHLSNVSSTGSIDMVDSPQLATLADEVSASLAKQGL

Row | binding | Molecule
1 | no binding | Tau (Tau4R1N) (from UniProt P10636-7 1-412)
2 | no binding | T-cell intracellular antigen 1 (TIA1), FLAG-tagged (protein, UniProt P31483 1-386) MEDEMPKTLYVGNLSRDVTEALILQLFSQIGPCKNCKMIMDTAGNDPYCFVEFHEHRHAAAALAAMNGRKIMGKEVKVNWATTPSSQKKDTSSSTVVSTQRSQDHFHVFVGDLSPEITTEDIKAAFAPFGRISDARVVKDMATGKSKGYGFVSFFNKWDAENAIQQMGGQWLGGRQIRTNWATRKPPAPKSTYESNTKQLSYDEVVNQSSPSNCTVYCGGVTSGLTEQLMRQTFSPFGQIMEIRVFPDKGYSFVRFNSHESAAHAIVSVNGTTIEGHVVKCYWGKETLDMINPVQQQNQIGYPQPYGQWGQWYGNAQQIGQYMPNGWQVPAYGMYGQAWNQQGFNQTQSSAPWMGPNYGVQPPQGQNGSMLPNQPSGYRVAGYETQ

Reference: PMC6646309
